# At least one compound was matched to its structure with a doubt left. Bridge positions count the residues as written; N and C are the ends. Peptide text beside a SMILES is read from it. I, II: the chains in the order shown.
# The chains behind the UniProt entries cited, without tags or fusion partners. Where a name states a change or a piece, a line headed by the entry shows the natural chain unless it says otherwise.
# UniProt Q01344: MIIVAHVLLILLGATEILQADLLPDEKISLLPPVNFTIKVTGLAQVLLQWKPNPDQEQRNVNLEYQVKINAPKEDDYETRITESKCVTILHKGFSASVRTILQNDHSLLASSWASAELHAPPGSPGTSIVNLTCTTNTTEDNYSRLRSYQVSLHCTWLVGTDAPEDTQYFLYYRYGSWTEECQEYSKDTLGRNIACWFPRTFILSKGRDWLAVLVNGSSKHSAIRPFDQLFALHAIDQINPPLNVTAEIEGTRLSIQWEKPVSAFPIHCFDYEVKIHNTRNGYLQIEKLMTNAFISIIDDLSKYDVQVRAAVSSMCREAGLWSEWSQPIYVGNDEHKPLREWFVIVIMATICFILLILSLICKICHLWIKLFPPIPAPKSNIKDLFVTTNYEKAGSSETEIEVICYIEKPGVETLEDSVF
# Key:
# human eosinophils = assay type: cell-based
# Method: The functional activity of AF18748 was assessed in a human eosinophil adhesion assay (following the method of […], et al, Cytokine 8:248 (1996)). […] AF18748 is therefore a potent and selective antagonist of IL-5 in a human eosinophil functional assay.
# [1] = biological target: T1, chimeric IL-5Rα/EGFR receptor (Homo sapiens, UniProt P00533+Q01344); assay: chimeric IL-5Rα/EGFR luciferase reporter cell assay in Ba/F3 cells; assay type: cell-based; details: serial dilutions, 4 hr
# T1 construct: A chimeric receptor consisting of the IL-5Rα ECD fused to the transmembrane spanning and intracellular domains; expressed in transfected cells; host or cells: Ba/F3 cells with c-fos enhancer/TK promoter luciferase reporter
# Excerpt: A system comprising a chimeric IL-5R-α/EGFR reported cell assay was designed to analyze receptor binding stoichiometry in a cellular context. A chimeric receptor consisting of the IL-5Rα ECD fused to the transmembrane spanning and intracellular domains of the epidermal growth factor receptor (EGFR) was constructed, and stably expressed in Ba/F3 cells that also contained a luciferase reporter gene under the transcriptional control of the c-fos enhancer and minimal thymidine kinase promoter.
# In the assay, Ba/F3 cells expressing a chimeric IL-5Rα/EGFR receptor and containing a luciferase reporter gene were starved overnight of the WEHI conditioned medium in which they were maintained, then seeded into microtiter wells at a density of 10^5 cells/well. Following stimulation, the cells were incubated for 4 hr at 37° in a 5% CO2 incubator. LucLite reagent (Packard) was then added to the wells according to the manufacturer's instructions and the plates were assayed for luciferase activity by counting in a Topcount instrument (Packard). Data points represent mean±SEM for 3 separate experiments performed in triplicate. The data has been normalized to the stimulation induced by 1 μM AF18748 in each experiment.
smiles,measurement,setting,value
"CC(C)[C@H](NC(=O)[C@H](CSSC[C@H](NC(=O)[C@@H](NC(=O)[C@H](Cc1ccc(O)cc1)NC(=O)CNC(=O)[C@H](CC(=O)O)NC(=O)CNC(=O)CNC(=O)CNC(=O)[C@@H](N)[C@@H](C)O)C(C)C)C(=O)N[C@H](C(=O)N[C@@H](CCC(=O)O)C(=O)N[C@@H](Cc1c[nH]c2ccccc12)C(=O)N[C@@H](C)C(=O)N[C@@H](CCCNC(=N)N)C(=O)N[C@H]1CSSC[C@@H](C(=O)N[C@@H](CCCCN)C(=O)O)NC(=O)[C@H]([C@@H](C)O)NC(=O)[C@@H]2CCCN2C1=O)C(C)C)NC(=O)[C@@H](NC(=O)[C@H](Cc1ccc(O)cc1)NC(=O)CNC(=O)[C@H](CC(=O)O)NC(=O)CNC(=O)CNC(=O)CNC(=O)[C@@H](N)[C@@H](C)O)C(C)C)C(=O)N[C@@H](CCC(=O)O)C(=O)N[C@@H](Cc1c[nH]c2ccccc12)C(=O)N[C@@H](C)C(=O)N[C@@H](CCCNC(=N)N)C(=O)N[C@H]1CSSC[C@@H](C(=O)N[C@@H](CCCCN)C(=O)O)NC(=O)[C@H]([C@@H](C)O)NC(=O)[C@@H]2CCCN2C1=O [AF18748] (I: H-TGGGDGYVCVEWARCPTCK-OH / II: H-TGGGDGYVCVEWARCPTCK-OH; disulfide I:9-II:9, I:15-I:18, II:15-II:18)","effect on eosinophil adhesion induced by GM-CSF, IL-3, TNFα or fMet-Leu-Phe",human eosinophils; concentrations up to 1 μM,no effect
same,agonist activity in eosinophil adhesion assay,human eosinophils; peptide alone,devoid of agonist activity
same,luciferase activity of Ba/F3 cells expressing the chimera,[1],dose dependent increase in luciferase activity

# From patent US7109299B1, “Peptides and compounds that bind to the IL-5 receptor” (Affymax, Inc., priority 1999, dated 2006)
